From publication PMC6206484
These are yes or no findings as the source states them, for the method shown. In cells and extracts the contact can be indirect. Some entries that bind do so weakly or less than the wild type. Tags and fused reporters may be left off the sequences shown.

Sequences of proteins named here, by UniProt entry; tags and fusion partners are left off.
UniProt Q8IY18: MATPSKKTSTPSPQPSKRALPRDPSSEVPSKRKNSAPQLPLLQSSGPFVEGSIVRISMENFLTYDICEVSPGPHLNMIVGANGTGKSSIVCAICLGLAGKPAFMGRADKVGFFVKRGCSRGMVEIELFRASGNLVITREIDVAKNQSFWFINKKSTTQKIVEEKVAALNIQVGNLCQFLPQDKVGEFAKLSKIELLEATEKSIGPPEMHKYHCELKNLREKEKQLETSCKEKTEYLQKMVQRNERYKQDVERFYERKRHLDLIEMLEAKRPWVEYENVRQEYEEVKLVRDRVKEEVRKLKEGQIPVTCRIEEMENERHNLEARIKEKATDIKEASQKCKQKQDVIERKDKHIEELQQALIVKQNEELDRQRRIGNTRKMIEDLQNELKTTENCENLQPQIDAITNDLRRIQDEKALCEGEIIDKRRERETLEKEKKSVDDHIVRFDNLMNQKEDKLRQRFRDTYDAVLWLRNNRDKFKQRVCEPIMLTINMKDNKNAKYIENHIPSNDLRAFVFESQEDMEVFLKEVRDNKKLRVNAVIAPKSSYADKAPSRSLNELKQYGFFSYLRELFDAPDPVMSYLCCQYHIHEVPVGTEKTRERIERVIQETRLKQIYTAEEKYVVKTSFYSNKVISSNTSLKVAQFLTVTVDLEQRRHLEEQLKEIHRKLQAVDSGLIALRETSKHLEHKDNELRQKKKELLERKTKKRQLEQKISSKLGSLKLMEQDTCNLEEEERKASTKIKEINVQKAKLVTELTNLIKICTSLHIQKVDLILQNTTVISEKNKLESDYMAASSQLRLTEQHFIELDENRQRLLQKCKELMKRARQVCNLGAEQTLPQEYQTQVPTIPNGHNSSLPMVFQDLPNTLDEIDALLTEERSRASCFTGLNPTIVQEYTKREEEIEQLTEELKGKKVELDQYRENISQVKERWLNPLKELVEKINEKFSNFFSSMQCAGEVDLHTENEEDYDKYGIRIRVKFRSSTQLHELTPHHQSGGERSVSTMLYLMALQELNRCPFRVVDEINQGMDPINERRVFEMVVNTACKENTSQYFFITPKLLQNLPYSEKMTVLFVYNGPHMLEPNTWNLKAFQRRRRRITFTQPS

Assays:
Assay in all cases: co-IP; competitive co-IP: 293T cells cotransfected with pCAGGS-HA-NSE4 and pFlag-SMC5, pFlag-NSE1 or pFlag-NSE3, with or without tag-free pcDNA3.1-PJA1ΔR (0.5 μg) or pcDNA3.1-PJA1BΔR (0, 0.5, 1.5 μg); RIPA lysis buffer; blots with anti-HA or anti-Flag
Flag-NSE3 (human) = target: T1, Flag-NSE3 (human) (UniProt Q96MG7)
T1 sequence: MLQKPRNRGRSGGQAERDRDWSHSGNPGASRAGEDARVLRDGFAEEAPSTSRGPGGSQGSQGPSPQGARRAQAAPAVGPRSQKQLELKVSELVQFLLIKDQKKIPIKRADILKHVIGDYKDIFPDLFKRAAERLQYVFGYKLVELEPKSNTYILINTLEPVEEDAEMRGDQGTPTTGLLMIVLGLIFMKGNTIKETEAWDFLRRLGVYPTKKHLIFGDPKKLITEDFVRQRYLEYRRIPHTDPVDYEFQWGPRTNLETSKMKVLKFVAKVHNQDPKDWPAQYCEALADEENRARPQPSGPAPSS

Flag-SMC5 (human) = Flag-SMC5 (human) (UniProt Q8IY18)
Flag-NSE1 (human) = target: T2, Flag-NSE1 (human) (UniProt Q8WV22)
T2 sequence: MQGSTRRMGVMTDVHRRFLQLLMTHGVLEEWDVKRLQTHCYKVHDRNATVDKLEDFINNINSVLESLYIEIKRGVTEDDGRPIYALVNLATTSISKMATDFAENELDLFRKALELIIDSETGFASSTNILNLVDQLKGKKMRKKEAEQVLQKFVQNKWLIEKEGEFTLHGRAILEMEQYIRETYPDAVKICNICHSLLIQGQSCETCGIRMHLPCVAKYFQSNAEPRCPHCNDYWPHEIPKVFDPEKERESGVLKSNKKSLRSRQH

binding (Flag-NSE3 (human)): binds | binding (Flag-SMC5 (human)): binds | binding (Flag-NSE1 (human)): binds
B1: HA-NSE4 (from pCAGGS-HA-NSE4) (protein, UniProt Q9NXX6 1-385)
chain: MSGDSSGRGPEGRGRGRDPHRDRTRSRSRSRSPLSPRSRRGSARERREAPERPSLEDTEPSDSGDEMMDPASLEAEADQGLCRQIRHQYRALINSVQQNREDILNAGDKLTEVLEEANTLFNEVSRAREAVLDAHFLVLASDLGKEKAKQLRSDLSSFDMLRYVETLLTHMGVNPLEAEELIRDEDSPDFEFIVYDSWKITGRTAENTFNKTHTFHFLLGSIYGECPVPKPRVDRPRKVPVIQEERAMPAQLRRMEESHQEATEKEVERILGLLQTYFREDPDTPMSFFDFVVDPHSFPRTVENIFHVSFIIRDGFARIRLDQDRLPVIEPVSINEENEGFEHNTQVRNQGIIALSYRDWEEIVKTFEISEPVITPSQRQQKPSA
